According to patent publication US8562947B2, “Oxidized avidin with high residency time in the treated tissues” (Sigma-Tau Industrie Farmaceutiche Riunite S.p.A., priority 2007, dated 2013):

Test: Tissue localization in cryosections of avidinated muscle (immunofluorescence, haematoxylin/eosin)
Format: in vivo, Balb/c nude mice
Settings: muscle sections, 24 hrs after i.m. injection
Method: OXavidinHABA was evaluated for tissue localization in comparison to WTavidin in cryosections of avidinated tissues after intramuscular injection into one hind limb of Balb/c nude mice (Harlan, Udine Italy). The muscles were excised 24 hrs after treatment and serial cryosections were prepared from each sample. Each slide was stained with haematoxylin/eosin to evaluate the tissue morphology or incubated with a mouse anti avidin antibody (A5680, Sigma Aldrich, Italy) followed by anti mouse Alexa fluor 488 (Invitrogen, Milan Italy). Finally, slides were mounted with coverslips and observed under microscope.
In the case of “WTavidin: wild type avidin, glycoprotein of about 68 kDa present in egg white, high affinity for biotin [reference compound]”, the “tissue localization (anti avidin immunofluorescence)” value is reported as “weak dotted localization”. With “OXavidinHABA: HABA-saturated avidin oxidized with sodium periodate; NaIO4 concentration not stated at these places” the “tissue localization (anti avidin immunofluorescence)” value was “strong homogenous distribution”.

Test: Isothermal Titration Calorimetry of avidin/ST2210 interaction
Format: binding
Settings: ITC with ST2210
Substance “WTavidin: wild type avidin, glycoprotein of about 68 kDa present in egg white, high affinity for biotin [reference compound]” has a ΔS of −19.6 cal mol^−1 K^−1. “OXavidinHABA 20 mM NaIO4: avidin oxidized with 20 mM NaIO4 in presence of 1 mM HABA” gave a ΔS of −28.0 cal mol^−1 K^−1. In the case of “OXavidin 20 mM NaIO4: avidin oxidized with 20 mM NaIO4 without HABA”, the ΔS is reported as 0.16 cal mol^−1 K^−1. Substance “OXavidinHABA 10 mM NaIO4: avidin oxidized with 10 mM NaIO4 in presence of 1 mM HABA” has a ΔS of −23.7 cal mol^−1 K^−1. Work on “OXavidinHABA 1 mM NaIO4: avidin oxidized with 1 mM NaIO4 in presence of 1 mM HABA” yielded a ΔS of −12.7 cal mol^−1 K^−1. “OXavidinHABA 5 mM NaIO4: avidin oxidized with 5 mM NaIO4 in presence of 1 mM HABA” gave a ΔS of −21.6 cal mol^−1 K^−1.
